Tested on: AIEC strain (Phylotype D)
Assay: GI AIEC decolonization murine model
Assay type: in vivo, C57BL/6J mice
Details: 30 mg/kg by oral gavage, post-treatment, FIG. 1
Procedure: A GI AIEC decolonization murine model studies were performed using a previously published murine model as the basis and run in accordance with animal ethical guidelines at an external contract research organization. Healthy C57BL/6J mice were first administered streptomycin by oral gavage. An AIEC strain (Phylotype D) was then administered at approximately 1-5×10^6 cfu per mouse by oral gavage and fecal pellets were enumerated for AIEC burden. Upon stable colonization (usually after 48 h post-AIEC administration), mice were sorted into three groups of 4 animals each. […] The third group was the control and was given an equivalent volume of sterile saline by oral gavage. Fecal pellets were recovered at various times as indicated on the X-axis of FIG. 1 and AIEC burden quantified by dilution and plating. Two successive fecal pellets were recovered from each mouse per group to sufficiently power the data.

O=C(O)c1cn(C2CC2)c2cc(N3CCNCC3)c(F)cc2c1=O [Ciprofloxacin]
AIEC burden after cessation of treatment (rebound): showed a rebound effect
AIEC burden after cessation of treatment (rebound) (listed as ciprofloxacin): began to show a re-bound effect following day 7 after treatment cessation
